# Measured values taken from the supplement of paper PMC9135407.
# Several values for one entry are separate records, joined by “and”; a condition that tells them apart may be missing. Equal entries are not always repeated. Structures can show the parent of a compound that is named as a salt. ± gives the standard deviation of the averaged measurements. This is one part of the list. Baselines shift from plate to plate; read single values as rough.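 Culture-activated primary human stellate myofibroblasts, where regained lipid droplets signal inactivation. Value: share of Hoechst-counted cells above a per-plate Bodipy cutoff, in duplicate wells, with DMSO negative and nortriptyline positive controls on each plate. Hits: a control-normalized score above the plate's top-tenth-percentile nortriptyline wells, or one of a plate's three best wells. Final well concentrations are not given.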
# System: primary human hepatic stellate cells (donor 1)
# Test: percent Bodipy-positive cells; higher = more lipid droplet accumulation
# Conditions: 48 h
# [1] = library stock concentration: 10 mM
# [2] = library stock concentration: 3.33 mM
# [3] = library stock concentration: 1 mM
# [4] = library stock concentration: 2.3 mM
# [5] = library stock concentration: 13.5 mM
# [6] = library stock concentration: 400 uM
# [7] = library stock concentration: 2 mM
smiles,measurement,setting,value
"O=Nc1ccc2oc(=O)ccc2c1 [6-Nitroso-1,2-benzopyrone]",percent Bodipy-positive cells,[1],94.5 ± 6.4%
CN(C(Cc1ccc(OS(=O)(=O)c2cccc3cnccc23)cc1)C(=O)N1CCN(c2ccccc2)CC1)S(=O)(=O)c1cccc2cnccc12 (stereo unspecified),percent Bodipy-positive cells,[2],24.4 ± 6.1%
same,percent Bodipy-positive cells,[1],50.2 ± 8%
CCN(CC)CCOc1ccc(C(=C(Cl)c2ccccc2)c2ccccc2)cc1.O=C(O)CC(O)(CC(=O)O)C(=O)O [Clomid],percent Bodipy-positive cells,[1],98.17 ± 0.58%
Cc1[nH]c(=O)c(C#N)cc1-c1ccc2nccn2c1 [Olprinone hydrochloride],percent Bodipy-positive cells,[1],15.2 ± 5.7%
NCCCCCc1c[nH]cn1 [Impentamine dihydrobromide],percent Bodipy-positive cells,[1],7.96 ± 0.42%
NC(=O)c1cccc(-c2cccc(OC(=O)NC3CCCCC3)c2)c1,percent Bodipy-positive cells,[3],13.1 ± 3%
same,percent Bodipy-positive cells,[2],9.46 ± 1.3%
same,percent Bodipy-positive cells,[1],15.7 ± 0.8%
CC(=O)O[C@H]1C(=O)[C@@]2(C)[C@H]([C@H](OC(=O)c3ccccc3)[C@]3(O)C[C@H](OC(=O)[C@H](O)[C@@H](NC(=O)c4ccccc4)c4ccccc4)C(C)=C1C3(C)C)[C@]1(OC(C)=O)CO[C@@H]1C[C@@H]2O [Taxol = Paclitaxel],percent Bodipy-positive cells,library stock concentration: 5.8 mM,9.67 ± 3.2%
CC(=O)O[C@H]1C(=O)[C@@]2(C)[C@H]([C@H](OC(=O)c3ccccc3)[C@]3(O)C[C@H](OC(=O)[C@H](O)[C@@H](NC(=O)c4ccccc4)c4ccccc4)C(C)=C1C3(C)C)[C@]1(OC(C)=O)CO[C@@H]1C[C@@H]2O [Paclitaxel],percent Bodipy-positive cells,,27.3 ± 4.7%
same,percent Bodipy-positive cells,[4],17.1 ± 4.5%
same,percent Bodipy-positive cells,[2],18.5 ± 6.8%
CC(=O)O[C@H]1C(=O)[C@@]2(C)[C@H]([C@H](OC(=O)c3ccccc3)[C@]3(O)C[C@H](OC(=O)[C@H](O)[C@@H](NC(=O)c4ccccc4)c4ccccc4)C(C)=C1C3(C)C)[C@]1(OC(C)=O)CO[C@@H]1C[C@@H]2O [Taxol],percent Bodipy-positive cells,[4],10.7 ± 0.88%
same,percent Bodipy-positive cells,[1],10.2 ± 5.4%
C[C@H](CCCO)[C@H]1CC[C@H]2[C@@H]3[C@H](O)C[C@H]4C[C@H](O)CC[C@]4(C)[C@H]3C[C@H](O)[C@]12C [Petromyzonol],percent Bodipy-positive cells,[3],11.8 ± 0.27%
CN1CCCC1CCOC(C)(c1ccccc1)c1ccc(Cl)cc1.O=C(O)/C=C/C(=O)O (stereo unspecified) [Clemastine fumarate],percent Bodipy-positive cells,[1],93.9 ± 3.6%
COc1cccc2c1C(=O)c1c(O)c3c(c(O)c1C2=O)C[C@@](O)(C(=O)CO)C[C@@H]3O[C@H]1C[C@H](N)[C@@H](O)[C@H](C)O1 [Epirubicin HCl],percent Bodipy-positive cells,[2],90 ± 14%
same,percent Bodipy-positive cells,[1],50 ± 71%
COc1cccc2c1C(=O)c1c(O)c3c(c(O)c1C2=O)C[C@@](O)(C(=O)CO)C[C@@H]3O[C@H]1C[C@H](N)[C@@H](O)[C@H](C)O1,percent Bodipy-positive cells,[1],100%
O=C(O)CCCCCCC1C(=O)N(Cc2ccccc2)C(=O)N1NCC(O)C1CCCCC1 (stereo unspecified),percent Bodipy-positive cells,[3],12.2 ± 6.1%
CCCN(CCC)CCc1cccc2c1CC(=O)N2 [Ropinirole HCl],percent Bodipy-positive cells,[2],27.8 ± 0.3%
same,percent Bodipy-positive cells,[1],15.5 ± 6.2%
CCCN(CCC)CCc1cccc2c1CC(=O)N2 [Ropinirole],percent Bodipy-positive cells,library stock concentration: 7.7 mM,11.3 ± 5.5%
CCCN(CCC)CCc1cccc2c1CC(=O)N2 [Ropinirole hydrochloride],percent Bodipy-positive cells,[1],17 ± 5.9%
N=C(N)c1ccc(N)cc1 [4-Aminobenzamidine dihydrochloride],percent Bodipy-positive cells,[1],45 ± 11%
CC(=O)O/N=C1/C(c2c(O)[nH]c3cc(Br)ccc23)=Nc2ccccc21 [GSK-3 Inhibitor X],percent Bodipy-positive cells,[2],16.4 ± 1.2%
C/C=C/c1ccc(OC)cc1 [Anethole],percent Bodipy-positive cells,[1],45 ± 1.5%
same,percent Bodipy-positive cells,[5],9.98 ± 4.6%
"C/C=C/c1ccc(OC)cc1 [Anethole, trans-]",percent Bodipy-positive cells,[5],5.57 ± 2.1%
"CCCCC(C)(C)[C@H](O)/C=C/[C@@H]1[C@@H](C/C=C\CCCC(=O)O)[C@H](O)C[C@H]1O [16,16-dimethyl Prostaglandin F2.beta.]",percent Bodipy-positive cells,[3],23.3 ± 1.6%
C=C(C)[C@@H]1CC[C@]2(CO)CC[C@]3(C)[C@H](CC[C@@H]4[C@@]5(C)CC[C@H](O)C(C)(C)[C@@H]5CC[C@]43C)[C@@H]12 [Betulin],percent Bodipy-positive cells,,8.87 ± 2.6%
CCCNC(=O)Nc1ccc(Oc2ncnc3cc(OC)c(OC)cc23)cc1Cl,percent Bodipy-positive cells,library stock concentration: 80 uM,8.14 ± 2.9%
same,percent Bodipy-positive cells,[6],14 ± 2.3%
same,percent Bodipy-positive cells,[7],7.5 ± 2.7%
same,percent Bodipy-positive cells,[2],22 ± 15%
CC(C)=CCC/C(C)=C/CC/C(C)=C/CC[C@]1(C)CCc2c(C)c(O)c(C)c(C)c2O1 [.alpha.-Tocotrienol],percent Bodipy-positive cells,[3],6.26 ± 1.4%
CC(COc1ccccc1Cc1ccccc1)N1CCCCC1.O=P(O)(O)O (stereo unspecified),percent Bodipy-positive cells,[1],87.2 ± 2.7%
"O=C(O)c1cc(=O)c2c(Cl)cc(Cl)cc2[nH]1 [5,7-Dichlorokynurenic acid]",percent Bodipy-positive cells,[1],28.5% and 5.64%
CN(C)C(=O)C(=O)c1cn(C)c2cc(Cl)c(C(=O)N3CCC(Cc4ccc(F)cc4)CC3)cc12,percent Bodipy-positive cells,[1],10.5 ± 0.77%
CN(C)CC/C=C1\c2ccccc2Sc2ccc(Cl)cc21.Cl [Chlorprothixene hydrochloride],percent Bodipy-positive cells,,84.8 ± 2.2%
CCCCC[C@H](O)/C=C/[C@H]1CC[C@@H](O)[C@@H]1CCCCCCC(=O)O [11-deoxy Prostaglandin F1.beta.],percent Bodipy-positive cells,[3],21.2 ± 1.9%
Oc1cccc(O)c1 [Resorcinol],percent Bodipy-positive cells,[1],10.1 ± 0.43%
same,percent Bodipy-positive cells,library stock concentration: 18.2 mM,12.9 ± 6.3%
C[C@@H](O[C@H]1OCCN(Cc2n[nH]c(=O)[nH]2)[C@H]1c1ccc(F)cc1)c1cc(C(F)(F)F)cc(C(F)(F)F)c1 [Aprepitant],percent Bodipy-positive cells,[2],27.8 ± 9.8%
same,percent Bodipy-positive cells,[1],14.6 ± 11%
CCCCN(CCCC)CC(O)c1cc(Cl)cc2c1-c1ccc(Cl)cc1/C2=C/c1ccc(Cl)cc1 (stereo unspecified) [Lumefantrine],percent Bodipy-positive cells,[1],36.8 ± 1.6%
"Cc1cn(-c2cc(NC(=O)c3ccc(C)c(Nc4nccc(-c5cccnc5)n4)c3)cc(C(F)(F)F)c2)cn1 [Nilotinib (AMN107, Tasigna) (2 mM)]",percent Bodipy-positive cells,[7],27.5 ± 18%
"Cc1cn(-c2cc(NC(=O)c3ccc(C)c(Nc4nccc(-c5cccnc5)n4)c3)cc(C(F)(F)F)c2)cn1 [Nilotinib (AMN107, Tasigna) (0.4 mM)]",percent Bodipy-positive cells,[6],12.6 ± 2.9%
Cc1cn(-c2cc(NC(=O)c3ccc(C)c(Nc4nccc(-c5cccnc5)n4)c3)cc(C(F)(F)F)c2)cn1 [Nilotinib (AMN-107)],percent Bodipy-positive cells,[2],68.2 ± 25%
same,percent Bodipy-positive cells,[1],97.4 ± 2.2%

# Fetched one by one from the entries so far:
smiles,measurement,setting,value
Cc1cn(-c2cc(NC(=O)c3ccc(C)c(Nc4nccc(-c5cccnc5)n4)c3)cc(C(F)(F)F)c2)cn1 [Nilotinib (AMN-107)],percent Bodipy-positive cells,[2],68.2 ± 25%
COc1cccc2c1C(=O)c1c(O)c3c(c(O)c1C2=O)C[C@@](O)(C(=O)CO)C[C@@H]3O[C@H]1C[C@H](N)[C@@H](O)[C@H](C)O1 [Epirubicin HCl],percent Bodipy-positive cells,[1],50 ± 71%
NC(=O)c1cccc(-c2cccc(OC(=O)NC3CCCCC3)c2)c1,percent Bodipy-positive cells,[2],9.46 ± 1.3%
